Measurements taken from PMC8797470, “Disruption of the pentraxin 3/CD44 interaction as an efficient therapy for triple‐negative breast cancers” (Clinical and Translational Medicine, 2022).
No constants are given. Whether binding was seen depends on the method and setting. In cells and extracts the contact can be indirect. Here binding means that the protein was enriched with, or labelled near, the bait; the list need not be complete.

Amino acid sequences for entries named in this document (tags omitted). Residues count along the entry.
UniProt P26022, residues 18-381: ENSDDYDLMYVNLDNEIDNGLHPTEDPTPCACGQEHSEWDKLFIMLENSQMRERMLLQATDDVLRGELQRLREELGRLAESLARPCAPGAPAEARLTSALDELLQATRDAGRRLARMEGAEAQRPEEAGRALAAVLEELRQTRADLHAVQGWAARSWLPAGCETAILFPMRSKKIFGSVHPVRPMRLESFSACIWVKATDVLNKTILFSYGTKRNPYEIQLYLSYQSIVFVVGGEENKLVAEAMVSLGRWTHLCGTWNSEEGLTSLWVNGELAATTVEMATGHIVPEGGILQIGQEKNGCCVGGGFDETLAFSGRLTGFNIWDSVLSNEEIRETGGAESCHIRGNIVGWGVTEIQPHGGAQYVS
UniProt P16070, residues 21-742: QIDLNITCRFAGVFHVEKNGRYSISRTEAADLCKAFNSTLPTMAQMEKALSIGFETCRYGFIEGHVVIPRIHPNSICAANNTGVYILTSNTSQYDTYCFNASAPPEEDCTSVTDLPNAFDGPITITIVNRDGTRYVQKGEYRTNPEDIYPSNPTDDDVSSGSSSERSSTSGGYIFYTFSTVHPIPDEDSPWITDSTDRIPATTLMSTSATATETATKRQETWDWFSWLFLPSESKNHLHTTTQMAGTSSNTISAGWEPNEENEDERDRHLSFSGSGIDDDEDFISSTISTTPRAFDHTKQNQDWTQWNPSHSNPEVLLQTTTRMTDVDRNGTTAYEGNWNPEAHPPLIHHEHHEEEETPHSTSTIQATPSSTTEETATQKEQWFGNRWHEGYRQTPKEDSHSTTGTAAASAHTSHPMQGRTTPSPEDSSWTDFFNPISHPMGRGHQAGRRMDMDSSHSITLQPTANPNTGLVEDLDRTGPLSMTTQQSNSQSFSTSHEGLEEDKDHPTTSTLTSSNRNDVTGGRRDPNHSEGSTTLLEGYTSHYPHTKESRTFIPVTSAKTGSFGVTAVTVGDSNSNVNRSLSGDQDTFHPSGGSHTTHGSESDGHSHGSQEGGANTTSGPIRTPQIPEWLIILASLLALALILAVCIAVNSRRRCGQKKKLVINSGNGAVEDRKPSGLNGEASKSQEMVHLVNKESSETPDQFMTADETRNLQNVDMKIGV

Target: recombinant His/PTX3 (pentraxin 3) from Expi293F human cells (UniProt P26022)
Assay: affinity purification with mass spectrometry; recombinant His/PTX3 from Expi293F cells as bait, pull-down, LC-MS/MS; source of the prey proteins not stated; only the target purified

## CD44 of MDA-MB-231 cells (from UniProt P16070 21-742) (receptor)
  binding: binds
